Reference: PubChem BioAssay AID1259308 (NCATS, 2017)

- Purpose: 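Knock-downs that increase output of a recombinant reporter protein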 (primary screen)
- Cells: human HEK293 embryonic kidney cells stably expressing firefly luciferase (HEK-CMV-Luc2-Hygro)
- Knock-down reagent: single siRNA against human genes, 0.8 pmol siRNA per well
- Timing: 72 h
- Detection: 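Reporter luminescence and viable-cell signal on separate replicate plates, given as percent of non-targeting control and median/MAD z-scores, plus per-cell luciferase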
- Direction: total luciferase, z-score and total luciferase, % of control: higher = more reporter protein produced; luciferase per cell, z-score: higher = more reporter output per viable cell; viable cells, % of control: higher = more viable cells
- Call rule: 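An siRNA counts as active if its total luciferase robust z-score exceeds 3; genes with two or more such siRNAs out of three were retested with fresh siRNAs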
- Calls: active = raised luciferase; inactive = no rise
In all, the deposit lists about 59,000 reagents; below is an unselected part. Over the whole deposit, about 1,510 (2.6%) are marked active. 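Calls use total luciferase alone and ignore viability, so some active siRNAs may act by altering cell number.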 The numbers tell different reagents against one gene apart.

| Target gene | reagent | total luciferase, z-score | total luciferase, % of control | luciferase per cell, z-score | viable cells, % of control | activity call |
| --- | --- | --- | --- | --- | --- | --- |
| ATMIN (ATM interactor) | 1 | 0.0409 | 82.7 | 0.378 | 83.7 | inactive |
| ATMIN (ATM interactor) | 2 | -0.509 | 71.8 | -0.576 | 93.3 | inactive |
| ATMIN (ATM interactor) | 3 | 0.96 | 101 | 0.386 | 102 | inactive |
| NCOA7 (nuclear receptor coactivator 7) | 1 | 0.11 | 84.1 | 0.0134 | 93.6 | inactive |
| NCOA7 (nuclear receptor coactivator 7) | 2 | 1.17 | 105 | 1.15 | 86.7 | inactive |
| NCOA7 (nuclear receptor coactivator 7) | 3 | -0.422 | 73.5 | -0.407 | 91.4 | inactive |
| VAX1 (ventral anterior homeobox 1) | 1 | 0.884 | 99.5 | 1.06 | 84.1 | inactive |
| VAX1 (ventral anterior homeobox 1) | 2 | 1.62 | 114 | 1.59 | 83.7 | inactive |
| VAX1 (ventral anterior homeobox 1) | 3 | -0.0194 | 81.5 | -0.498 | 104 | inactive |
| ARC (activity regulated cytoskeleton associated protein) | 1 | -2.49 | 32.3 | -0.975 | 46.7 | inactive |
| ARC (activity regulated cytoskeleton associated protein) | 2 | -0.309 | 75.7 | 1.81 | 52.5 | inactive |
| ARC (activity regulated cytoskeleton associated protein) | 3 | 0.389 | 89.6 | 0.0802 | 98 | inactive |
| HSPA1L (heat shock protein family A (Hsp70) member 1 like) | 1 | 0.755 | 96.9 | 2.05 | 63.2 | inactive |
| HSPA1L (heat shock protein family A (Hsp70) member 1 like) | 2 | -1.36 | 54.9 | -0.355 | 67.3 | inactive |
| HSPA1L (heat shock protein family A (Hsp70) member 1 like) | 3 | 0.304 | 87.9 | 0.456 | 87.1 | inactive |
| CREBL2 (cAMP responsive element binding protein like 2) | 1 | -1.31 | 55.8 | -0.828 | 77.5 | inactive |
| CREBL2 (cAMP responsive element binding protein like 2) | 2 | 2.13 | 124 | 1.09 | 104 | inactive |
| CREBL2 (cAMP responsive element binding protein like 2) | 3 | -0.0669 | 80.6 | -0.135 | 93.3 | inactive |
| ANP32B (acidic nuclear phosphoprotein 32 family member B) | 1 | -0.145 | 79 | -0.206 | 93.2 | inactive |
| ANP32B (acidic nuclear phosphoprotein 32 family member B) | 2 | -0.571 | 70.5 | -1.2 | 108 | inactive |
| ANP32B (acidic nuclear phosphoprotein 32 family member B) | 3 | 0.808 | 98 | 0.153 | 105 | inactive |
| DUSP15 (dual specificity phosphatase 15) | 1 | -0.534 | 71.3 | -0.801 | 98.3 | inactive |
| DUSP15 (dual specificity phosphatase 15) | 2 | 1.11 | 104 | 0.888 | 91.9 | inactive |
| DUSP15 (dual specificity phosphatase 15) | 3 | 0.114 | 84.2 | -0.684 | 113 | inactive |

Part of the list above, reformatted:
{"Target gene":"DUSP15 (dual specificity phosphatase 15)","reagent":1,"total luciferase, z-score":-0.534,"total luciferase, % of control":71.3,"luciferase per cell, z-score":-0.801,"viable cells, % of control":98.3,"activity call":"inactive"}
{"Target gene":"DUSP15 (dual specificity phosphatase 15)","reagent":2,"total luciferase, z-score":1.11,"total luciferase, % of control":104,"luciferase per cell, z-score":0.888,"viable cells, % of control":91.9,"activity call":"inactive"}
{"Target gene":"DUSP15 (dual specificity phosphatase 15)","reagent":3,"total luciferase, z-score":0.114,"total luciferase, % of control":84.2,"luciferase per cell, z-score":-0.684,"viable cells, % of control":113,"activity call":"inactive"}
